In article doi:10.1101/2023.05.09.539743 (bioRxiv, 2023):
These are yes or no findings as the source states them, for the method shown. In cells and extracts the contact can be indirect. Some entries that bind do so weakly or less than the wild type. Tags and fused reporters may be left off the sequences shown. Each block holds one molecule with its values, some of them ahead of it.

Key:
Assay in all cases: co-IP
GFP-ARS2 = biological target: T1, GFP-ARS2 (UniProt Q9BXP5)
T1 sequence: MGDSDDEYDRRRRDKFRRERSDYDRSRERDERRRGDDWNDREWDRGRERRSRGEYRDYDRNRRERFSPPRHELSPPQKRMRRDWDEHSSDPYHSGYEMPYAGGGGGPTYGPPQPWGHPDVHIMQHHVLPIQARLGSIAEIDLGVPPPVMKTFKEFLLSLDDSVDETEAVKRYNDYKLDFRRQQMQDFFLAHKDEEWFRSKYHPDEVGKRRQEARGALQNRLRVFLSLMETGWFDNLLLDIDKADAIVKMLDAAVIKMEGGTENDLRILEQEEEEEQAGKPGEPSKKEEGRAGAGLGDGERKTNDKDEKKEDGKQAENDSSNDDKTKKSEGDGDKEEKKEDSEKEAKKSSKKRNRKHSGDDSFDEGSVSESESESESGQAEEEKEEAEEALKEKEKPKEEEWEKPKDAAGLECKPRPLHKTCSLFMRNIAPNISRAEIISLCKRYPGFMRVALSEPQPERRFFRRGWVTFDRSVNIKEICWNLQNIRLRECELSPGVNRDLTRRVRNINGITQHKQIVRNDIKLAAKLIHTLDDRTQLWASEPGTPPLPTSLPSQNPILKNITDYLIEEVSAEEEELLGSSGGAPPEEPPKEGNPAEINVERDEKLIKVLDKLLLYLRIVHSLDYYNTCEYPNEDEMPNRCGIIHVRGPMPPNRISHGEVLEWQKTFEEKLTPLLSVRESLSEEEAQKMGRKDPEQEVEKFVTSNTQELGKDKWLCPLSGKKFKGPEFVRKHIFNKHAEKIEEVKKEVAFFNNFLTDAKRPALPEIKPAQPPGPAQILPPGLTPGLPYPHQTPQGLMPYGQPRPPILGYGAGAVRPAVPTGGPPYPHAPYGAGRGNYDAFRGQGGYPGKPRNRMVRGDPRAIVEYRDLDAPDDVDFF

[1] = biological target: T2, MYC-tagged ZC3H18^WT (human) (UniProt Q86VM9)
T2 sequence: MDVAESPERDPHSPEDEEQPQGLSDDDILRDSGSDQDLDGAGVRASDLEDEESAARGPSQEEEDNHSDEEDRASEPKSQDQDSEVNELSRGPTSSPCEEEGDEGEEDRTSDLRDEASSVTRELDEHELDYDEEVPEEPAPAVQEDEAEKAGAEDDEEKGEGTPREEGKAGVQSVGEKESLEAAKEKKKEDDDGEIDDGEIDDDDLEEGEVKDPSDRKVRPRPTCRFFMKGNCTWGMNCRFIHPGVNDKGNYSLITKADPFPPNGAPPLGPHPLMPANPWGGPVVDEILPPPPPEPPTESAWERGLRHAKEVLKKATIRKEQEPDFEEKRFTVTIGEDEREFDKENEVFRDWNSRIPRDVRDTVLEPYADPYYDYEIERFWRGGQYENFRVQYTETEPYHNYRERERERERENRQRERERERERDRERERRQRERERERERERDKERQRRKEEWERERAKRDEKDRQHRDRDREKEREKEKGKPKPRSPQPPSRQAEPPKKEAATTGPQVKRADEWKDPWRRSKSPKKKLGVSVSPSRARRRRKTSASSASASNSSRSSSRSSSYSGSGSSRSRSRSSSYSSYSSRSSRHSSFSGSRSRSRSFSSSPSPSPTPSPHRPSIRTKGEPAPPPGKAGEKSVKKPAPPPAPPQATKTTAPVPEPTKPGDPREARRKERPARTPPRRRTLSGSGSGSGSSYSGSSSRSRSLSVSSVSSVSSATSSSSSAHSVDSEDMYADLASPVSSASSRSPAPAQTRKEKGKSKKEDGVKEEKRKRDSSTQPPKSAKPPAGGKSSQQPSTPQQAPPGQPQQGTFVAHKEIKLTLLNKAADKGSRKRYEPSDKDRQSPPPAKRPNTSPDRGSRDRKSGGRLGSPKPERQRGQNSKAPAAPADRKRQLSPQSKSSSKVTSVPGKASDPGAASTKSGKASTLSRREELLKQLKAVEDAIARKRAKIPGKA

[2] = biological target: T3, MYC-tagged ZFC3H1 N-terminal variant Z1^1-209(WT) (human) (UniProt O60293)
T3 sequence: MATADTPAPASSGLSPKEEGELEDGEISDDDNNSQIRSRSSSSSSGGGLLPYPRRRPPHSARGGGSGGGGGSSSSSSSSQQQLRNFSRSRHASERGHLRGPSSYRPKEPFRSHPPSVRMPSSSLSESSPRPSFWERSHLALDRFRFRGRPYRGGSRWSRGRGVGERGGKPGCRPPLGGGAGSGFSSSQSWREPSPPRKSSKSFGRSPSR

[3] = biological target: T4, MYC-tagged ZC3H18^WT (human), Q86VM9; conditions: remark: other sources report otherwise
T4 chain: T2 sequence

B1: ARS2 (endogenous) (protein, UniProt Q9BXP5 1-876)
chain: T1 sequence
- binding [1]: binds
- binding [2]: binds

B3: NCBP2 (endogenous), P52298 1-156 (protein)
chain: MSGGLLKALRSDSYVELSQYRDQHFRGDNEEQEKLLKKSCTLYVGNLSFYTTEEQIYELFSKSGDIKKIIMGLDKMKKTACGFCFVEYYSRADAENAMRYINGTRLDDRIIRTDWDAGFKEGRQYGRGRSGGQVRDEYRQDYDAGRGGYGKLAQNQ
- binding [3]: binds

Other lines, results leading:

- binding (GFP-ARS2): binds
Molecule: ZFC3H1 (endogenous) (from UniProt O60293 1-1989)

- binding [1]: binds
B2: ZCCHC8 (endogenous) (protein, UniProt Q6NZY4 1-707)
chain: MAAEVYFGDLELFEPFDHPEESIPKPVHTRFKDDDGDEEDENGVGDAELRERLRQCEETIEQLRAENQELKRKLNILTRPSGILVNDTKLDGPILQILFMNNAISKQYHQEIEEFVSNLVKRFEEQQKNDVEKTSFNLLPQPSSIVLEEDHKVEESCAIKNNKEAFSVVGSVLYFTNFCLDKLGQPLLNENPQLSEGWEIPKYHQVFSHIVSLEGQEIQVKAKRPKPHCFNCGSEEHQMKDCPMPRNAARISEKRKEYMDACGEANNQNFQQRYHAEEVEERFGRFKPGVISEELQDALGVTDKSLPPFIYRMRQLGYPPGWLKEAELENSGLALYDGKDGTDGETEVGEIQQNKSVTYDLSKLVNYPGFNISTPRGIPDEWRIFGSIPMQACQQKDVFANYLTSNFQAPGVKSGNKRSSSHSSPGSPKKQKNESNSAGSPADMELDSDMEVPHGSQSSESFQFQPPLPPDTPPLPRGTPPPVFTPPLPKGTPPLTPSDSPQTRTASGAVDEDALTLEELEEQQRRIWAALEQAESVNSDSDVPVDTPLTGNSVASSPCPNELDLPVPEGKTSEKQTLDEPEVPEIFTKKSEAGHASSPDSEVTSLCQKEKAELAPVNTEGALLDNGSVVPNCDISNGGSQKLFPADTSPSTATKIHSPIPDMSKFATGITPFEFENMAESTGMYLRIRSLLKNSPRNQQKNKKASE
